Results are given in words; binding and its absence hold for the method and conditions named. Binding seen in cells or lysates may run through a third protein. Some results given as binding are weak or reduced against the parent protein; the word gives no strength.

By UniProt entry, the sequences of proteins in these tests, tags left out.
UniProt P08912: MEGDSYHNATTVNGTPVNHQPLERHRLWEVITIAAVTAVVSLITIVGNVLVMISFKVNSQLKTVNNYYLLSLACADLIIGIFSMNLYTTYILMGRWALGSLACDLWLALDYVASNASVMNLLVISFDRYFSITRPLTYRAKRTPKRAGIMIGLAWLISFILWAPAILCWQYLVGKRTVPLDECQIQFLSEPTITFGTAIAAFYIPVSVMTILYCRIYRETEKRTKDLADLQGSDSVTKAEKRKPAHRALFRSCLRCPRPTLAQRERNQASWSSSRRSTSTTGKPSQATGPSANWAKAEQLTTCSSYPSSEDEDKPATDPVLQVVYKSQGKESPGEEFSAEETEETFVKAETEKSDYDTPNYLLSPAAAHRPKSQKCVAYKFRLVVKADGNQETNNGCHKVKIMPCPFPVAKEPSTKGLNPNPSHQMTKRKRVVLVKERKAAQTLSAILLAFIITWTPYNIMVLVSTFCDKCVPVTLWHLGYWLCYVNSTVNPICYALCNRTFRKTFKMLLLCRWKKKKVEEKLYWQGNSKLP
UniProt P32120: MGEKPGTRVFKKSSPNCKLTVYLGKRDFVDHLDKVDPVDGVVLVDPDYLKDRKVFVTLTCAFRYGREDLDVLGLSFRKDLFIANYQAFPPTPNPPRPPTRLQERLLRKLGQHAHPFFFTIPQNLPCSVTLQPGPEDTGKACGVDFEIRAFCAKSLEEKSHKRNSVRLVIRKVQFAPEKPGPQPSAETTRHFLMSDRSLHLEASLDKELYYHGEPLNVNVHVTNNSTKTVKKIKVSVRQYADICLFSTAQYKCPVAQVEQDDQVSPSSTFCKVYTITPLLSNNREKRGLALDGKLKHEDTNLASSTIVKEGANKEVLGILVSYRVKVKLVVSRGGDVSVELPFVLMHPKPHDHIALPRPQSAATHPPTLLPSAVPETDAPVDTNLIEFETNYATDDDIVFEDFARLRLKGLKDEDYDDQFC

In this assay the target is muscarinic M5 acetylcholine receptor-NanoLuciferase (human) (UniProt P08912). As to the kind of experiment: FRET or BRET.

Consider “Halo-Tag-β-arrestin2 (from UniProt P32120 1-420)”, for which the binding result is listed as “binds”.

The values above are taken from publication doi:10.1101/2023.07.14.548990.
